Test results published in patent US20090117091A1.
No constants are given. Whether binding was seen depends on the method and setting. Some results given as binding are weak or reduced against the parent protein; the word gives no strength.

The chains behind the UniProt entries cited, without tags or fusion partners. Where a name states a change or a piece, a line headed by the entry shows the natural chain unless it says otherwise. Residues count along the entry.
UniProt P11717: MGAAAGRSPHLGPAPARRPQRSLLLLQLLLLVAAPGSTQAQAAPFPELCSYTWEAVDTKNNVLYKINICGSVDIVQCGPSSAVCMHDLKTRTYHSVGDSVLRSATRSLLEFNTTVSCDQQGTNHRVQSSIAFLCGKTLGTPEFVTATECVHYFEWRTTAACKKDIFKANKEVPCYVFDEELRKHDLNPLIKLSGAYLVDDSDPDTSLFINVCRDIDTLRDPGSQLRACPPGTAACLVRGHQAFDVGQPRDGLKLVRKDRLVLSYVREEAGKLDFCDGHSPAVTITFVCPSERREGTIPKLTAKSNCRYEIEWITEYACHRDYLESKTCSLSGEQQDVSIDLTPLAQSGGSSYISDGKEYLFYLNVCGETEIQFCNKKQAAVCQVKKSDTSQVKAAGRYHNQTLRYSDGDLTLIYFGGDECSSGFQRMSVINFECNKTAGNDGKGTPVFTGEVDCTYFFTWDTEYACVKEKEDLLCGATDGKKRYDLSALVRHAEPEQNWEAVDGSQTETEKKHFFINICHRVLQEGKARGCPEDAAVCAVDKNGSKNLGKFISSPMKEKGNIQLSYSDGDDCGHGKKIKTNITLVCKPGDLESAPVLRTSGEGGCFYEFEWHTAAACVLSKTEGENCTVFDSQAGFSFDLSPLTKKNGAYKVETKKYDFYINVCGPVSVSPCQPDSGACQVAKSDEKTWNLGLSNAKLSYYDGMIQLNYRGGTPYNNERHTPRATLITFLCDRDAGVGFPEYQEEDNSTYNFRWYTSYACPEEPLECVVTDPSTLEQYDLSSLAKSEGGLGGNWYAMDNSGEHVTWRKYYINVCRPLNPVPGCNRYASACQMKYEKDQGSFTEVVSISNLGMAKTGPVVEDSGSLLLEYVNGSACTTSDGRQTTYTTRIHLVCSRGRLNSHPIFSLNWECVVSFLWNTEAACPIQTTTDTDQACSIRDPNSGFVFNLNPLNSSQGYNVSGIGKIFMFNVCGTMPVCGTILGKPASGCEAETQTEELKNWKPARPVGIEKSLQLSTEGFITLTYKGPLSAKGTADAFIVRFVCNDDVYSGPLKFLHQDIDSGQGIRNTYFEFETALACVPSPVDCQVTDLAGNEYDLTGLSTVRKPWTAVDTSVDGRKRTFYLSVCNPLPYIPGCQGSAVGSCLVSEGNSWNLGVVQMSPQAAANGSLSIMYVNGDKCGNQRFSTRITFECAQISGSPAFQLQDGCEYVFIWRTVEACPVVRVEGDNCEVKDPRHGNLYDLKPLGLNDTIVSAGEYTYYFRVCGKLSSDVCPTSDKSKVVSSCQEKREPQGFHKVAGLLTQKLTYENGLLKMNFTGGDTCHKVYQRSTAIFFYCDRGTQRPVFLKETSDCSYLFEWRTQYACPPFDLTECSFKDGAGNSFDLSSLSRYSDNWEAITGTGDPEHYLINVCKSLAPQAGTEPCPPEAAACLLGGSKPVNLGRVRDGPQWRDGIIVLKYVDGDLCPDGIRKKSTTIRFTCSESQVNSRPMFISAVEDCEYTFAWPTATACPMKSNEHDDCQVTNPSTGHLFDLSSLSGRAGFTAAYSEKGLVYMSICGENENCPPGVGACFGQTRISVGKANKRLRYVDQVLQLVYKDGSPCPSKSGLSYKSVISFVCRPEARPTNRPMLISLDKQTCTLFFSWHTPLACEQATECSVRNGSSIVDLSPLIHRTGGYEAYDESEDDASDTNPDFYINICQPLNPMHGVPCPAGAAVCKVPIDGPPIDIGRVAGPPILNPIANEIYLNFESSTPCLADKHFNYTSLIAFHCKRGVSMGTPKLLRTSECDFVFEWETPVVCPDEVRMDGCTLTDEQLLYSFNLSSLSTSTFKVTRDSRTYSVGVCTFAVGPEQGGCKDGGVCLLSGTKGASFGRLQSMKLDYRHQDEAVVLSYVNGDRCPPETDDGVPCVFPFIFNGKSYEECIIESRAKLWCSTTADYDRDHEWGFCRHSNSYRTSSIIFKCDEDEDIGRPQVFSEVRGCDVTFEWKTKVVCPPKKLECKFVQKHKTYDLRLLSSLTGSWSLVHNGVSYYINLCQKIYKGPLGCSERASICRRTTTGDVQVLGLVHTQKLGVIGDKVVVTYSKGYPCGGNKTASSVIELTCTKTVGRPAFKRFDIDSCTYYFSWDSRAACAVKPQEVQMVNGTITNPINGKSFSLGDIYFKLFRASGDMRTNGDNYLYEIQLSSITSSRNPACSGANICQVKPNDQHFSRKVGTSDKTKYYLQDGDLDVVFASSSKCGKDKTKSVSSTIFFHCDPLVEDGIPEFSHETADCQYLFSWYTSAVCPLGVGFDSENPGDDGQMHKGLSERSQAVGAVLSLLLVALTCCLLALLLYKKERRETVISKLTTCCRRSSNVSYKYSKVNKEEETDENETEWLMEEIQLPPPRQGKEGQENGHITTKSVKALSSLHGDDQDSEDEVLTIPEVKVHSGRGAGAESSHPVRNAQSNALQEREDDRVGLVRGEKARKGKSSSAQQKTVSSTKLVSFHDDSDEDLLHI
UniProt P01344, residues 25-91: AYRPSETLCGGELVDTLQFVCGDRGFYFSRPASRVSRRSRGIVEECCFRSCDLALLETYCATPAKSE

Target: biotinylated, His-tagged recombinant wild-type CI-MPR domains 10-13 (1288FS) (Homo sapiens (Human)) (UniProt P11717)
Test: SPR (Biacore 3000): biotinylated wild-type CI-MPR Dom10-13 on an SA chip, I1572T mutant Dom10-13 flow cell subtracted

binding: binds
Substance: IGF-II (from UniProt P01344 25-91) (ligand)
